## Primary screen of a compound library

Protein sequences, listed by entry. Tags and fused reporters are not part of them.
UniProt E9BF75, entry or part of it: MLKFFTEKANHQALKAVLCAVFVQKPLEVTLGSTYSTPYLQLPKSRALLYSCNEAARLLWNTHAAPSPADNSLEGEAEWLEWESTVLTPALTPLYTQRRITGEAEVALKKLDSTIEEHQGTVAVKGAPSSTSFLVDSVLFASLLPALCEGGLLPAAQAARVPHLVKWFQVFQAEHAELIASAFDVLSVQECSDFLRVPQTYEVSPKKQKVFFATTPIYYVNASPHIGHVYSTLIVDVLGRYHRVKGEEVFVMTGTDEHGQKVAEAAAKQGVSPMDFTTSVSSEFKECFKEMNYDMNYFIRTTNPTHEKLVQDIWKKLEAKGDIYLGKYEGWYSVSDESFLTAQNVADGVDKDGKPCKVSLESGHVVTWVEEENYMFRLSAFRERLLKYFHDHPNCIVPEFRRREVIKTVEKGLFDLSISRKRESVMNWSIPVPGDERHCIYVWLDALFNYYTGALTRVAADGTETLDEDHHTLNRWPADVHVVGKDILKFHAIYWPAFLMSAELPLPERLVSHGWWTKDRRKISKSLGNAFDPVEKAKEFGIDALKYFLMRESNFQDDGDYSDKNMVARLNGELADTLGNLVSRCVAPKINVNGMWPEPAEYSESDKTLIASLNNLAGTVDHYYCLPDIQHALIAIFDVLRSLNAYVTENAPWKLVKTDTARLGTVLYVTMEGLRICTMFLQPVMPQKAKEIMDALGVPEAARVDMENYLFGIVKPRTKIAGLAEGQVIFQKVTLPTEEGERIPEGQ

Results are percentages, as filed.
The record does not define 0% and 100%; most values in the screen are far below 50% and negative numbers occur (in some assays of this library far below -100).
Compounds were drawn at random from those tested, without regard to their results.

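Primary screen of methionyl-tRNA synthetase; the read-out is not stated. Target: Methionyl-tRNA synthetase (putative), Leishmania donovani (UniProt E9BF75). The test concentration is not given. The values are filed as inhibition. Of about 68,000 compounds tested this way, about 24 (0.035%) reached 50% or more in at least one test.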

compound	Inhibition
CCc1ccc(CN(CCCn2ccnc2)Cc2ccc(C)s2)o1	2.397%
COCCN1CCCC(c2cncc(Oc3ccccc3OC)n2)C1 (stereo not shown)	19.35%
O=C(c1cc(C2CC2)on1)N1C[C@H]2CC[C@](O)(c3ccc(F)cc3)[C@H]2C1	16.86%
CNc1cc(N2CCCC2CNCc2cccc(C(N)=O)c2)ncn1 (stereo not shown)	16.62%
CNC(=O)c1cc2c(nc1NCC(C)C)CCN(CCOC)CC2	6.529%
Cc1cc(C)cc(CN2CCN(Cc3ccc4nonc4c3)CC2=O)c1	22.07%
CCn1ccc(CN(C)C(=O)CSc2nnc(N)s2)n1	13.54%
CC(C)(NS(C)(=O)=O)C(=O)NCCc1csc2ccccc12	17.01%
CCN(C)S(=O)(=O)NC(C)c1cnc(N(C)C2CCCCC2)nc1C (stereo not shown)	5.155%
Cc1nccn1[C@@H]1CC[C@@H](N(C)S(=O)(=O)c2ccc(F)cc2)[C@H]1O	13.37%
c1ccc(CO[C@H]2C[C@@H]3CN(Cc4cncnc4)C[C@@H]3C2)cc1	10.29%
CCOc1ncccc1NC(=O)NC1CCN(C(=O)C2CC2)CC1	15.3%
CC(=O)Nc1cccc(C(=O)N2CCc3c(nc(N(C)C)[nH]c3=O)C2)c1	7.949%
CN(C)[C@@H]1CN(C(=O)Cc2ccsc2)[C@@H]2CCCO[C@H]12	3.636%
Cc1cnc(NC(C)Cc2cnccn2)nc1N(C)C (stereo not shown)	7.581%
Cc1ccc(N2CCc3sc(C(=O)NCCN4CCCC4)cc32)nn1	19.29%
Cc1cc(N(C)Cc2c(C)noc2C)n2nc(C)c(C)c2n1	-0.5376%
Cc1nccn1-c1ccc(=O)n(CCNC(=O)c2ccncc2)n1	18.16%
CCN(C(=O)CN(C)C(c1cccc(F)c1)c1ccccn1)C1CC1 (stereo not shown)	5.263%
CN1CCC2(CC1)C(=O)N(C)c1ccc(F)cc12	6.162%
CCOC(C)c1nccn1Cc1cc(C)on1 (stereo not shown)	2.975%
CC(C)=CCN1CC2(CCN(Cc3cccc(C#N)c3)CC2)CC1=O	6.597%
Cc1cc(C(=O)N2CCN(CC(O)Cn3cccn3)CC2)c(C)o1 (stereo not shown)	4.032%
CS(=O)(=O)CC(=O)N(CCN1CCOCC1)Cc1ccco1	2.676%
CC(CCc1cccc(F)c1)NC(=O)NCc1ncnn1C (stereo not shown)	4.935%
O=C(CCn1cc(Cl)cn1)N1C[C@@H]2CC[C@H](C1)N(Cc1ccccn1)C2	15.82%
CCc1cc(=O)[nH]c2nnc(SCC(=O)NC(C)C)n12	-0.3497%
O=c1n(CC2CCCO2)nc(CC2CCNCC2)n1-c1ccccc1 (stereo not shown)	6.452%
O=C(C1CCOCC1)N1CCC(OCc2cccnc2)CC1	9.48%
Cc1ccc(-c2cccc(-c3ccn(CCN4CCCC4)n3)c2)nn1	12.68%
O=C1c2cccnc2OC(CN2CCOCC2)CN1CC1CC1 (stereo not shown)	4.595%
COCC1CCN(Cc2cc(O)c3c(C)ccc(C)c3n2)CC1	0.6803%
CNC(=O)c1cccc(NC(=O)NC(C)c2cc(C)oc2C)c1C (stereo not shown)	20.53%
CC(C(=O)N1CCOCC1)n1cncn1 (stereo not shown)	20.51%
O=C(NCC(O)COc1ccccc1)C1(c2ccc(F)cc2)CC1 (stereo not shown)	16.03%
CC(O)CN(Cc1cccc(C(N)=O)c1)c1ccccc1 (stereo not shown)	11.23%
Nc1ncc(CN2C[C@H](C3CC3)[C@@H](N)C2)cn1	6.634%
Cc1cs/c(=N\C(=O)Cn2nc(N3CCOCC3)ccc2=O)[nH]1	8.043%
COCc1nccc(C2CCCN(Cc3ccc(SC)cc3)C2)n1 (stereo not shown)	13.69%
CCC1CN(CC(=O)NCCN2CCCC2)c2ccccc2S1 (stereo not shown)	23%
Cc1noc(C)c1CN(C)C(=O)C1(N)CCCCC1	14.97%
Cc1cccc(NC(=O)CN(C)C(=O)c2ccc(-n3cccc3)nc2)n1	12.32%
O=C(CCc1nccs1)N1CCN(c2ccccn2)CC1	4.972%
CCS(=O)(=O)c1ccc(CNc2c(Cl)cccc2C#N)cc1	-1.795%
CN([C@@H]1CC[C@@H](N2CCCC2)[C@@H]1O)S(=O)(=O)c1ccccc1	13.95%
CNC(=O)[C@@H]1C[C@H](n2cc(-c3ccc(CN4CC=CC4)cc3)nn2)CN1	-1.305%
CC(C)(C)C(Cn1ccnc1)NC(=O)NCc1ccco1 (stereo not shown)	12.58%
CN(Cc1ccncc1)C1COC2(CCN(Cc3ccco3)CC2)C1 (stereo not shown)	-1.961%
CCN(Cc1ccccc1C)S(C)(=O)=O	-0.2597%

Repeated from the top, 3 entries:

| compound | Inhibition |
|---|---|
| `CCc1ccc(CN(CCCn2ccnc2)Cc2ccc(C)s2)o1` | 2.397% |
| `COCCN1CCCC(c2cncc(Oc3ccccc3OC)n2)C1` (stereo not shown) | 19.35% |
| `O=C(c1cc(C2CC2)on1)N1C[C@H]2CC[C@](O)(c3ccc(F)cc3)[C@H]2C1` | 16.86% |

The values are deposited in ChEMBL (CHEMBL3988442, “University of Dundee, Small-Polar-MMV Screening Library” (2021)).